Source: US9168245B2, “Selective protein kinase inhibitors” (AB SCIENCE, priority 2011, dated 2015)
pIC50: −log10 of the molar value. Structures can show the parent of a compound that is named as a salt. Some of these results come from one statement about several compounds together.

Sequences of proteins named here, by UniProt entry; tags and fusion partners are left off. Residues count along the entry.
UniProt P10721, 26-976: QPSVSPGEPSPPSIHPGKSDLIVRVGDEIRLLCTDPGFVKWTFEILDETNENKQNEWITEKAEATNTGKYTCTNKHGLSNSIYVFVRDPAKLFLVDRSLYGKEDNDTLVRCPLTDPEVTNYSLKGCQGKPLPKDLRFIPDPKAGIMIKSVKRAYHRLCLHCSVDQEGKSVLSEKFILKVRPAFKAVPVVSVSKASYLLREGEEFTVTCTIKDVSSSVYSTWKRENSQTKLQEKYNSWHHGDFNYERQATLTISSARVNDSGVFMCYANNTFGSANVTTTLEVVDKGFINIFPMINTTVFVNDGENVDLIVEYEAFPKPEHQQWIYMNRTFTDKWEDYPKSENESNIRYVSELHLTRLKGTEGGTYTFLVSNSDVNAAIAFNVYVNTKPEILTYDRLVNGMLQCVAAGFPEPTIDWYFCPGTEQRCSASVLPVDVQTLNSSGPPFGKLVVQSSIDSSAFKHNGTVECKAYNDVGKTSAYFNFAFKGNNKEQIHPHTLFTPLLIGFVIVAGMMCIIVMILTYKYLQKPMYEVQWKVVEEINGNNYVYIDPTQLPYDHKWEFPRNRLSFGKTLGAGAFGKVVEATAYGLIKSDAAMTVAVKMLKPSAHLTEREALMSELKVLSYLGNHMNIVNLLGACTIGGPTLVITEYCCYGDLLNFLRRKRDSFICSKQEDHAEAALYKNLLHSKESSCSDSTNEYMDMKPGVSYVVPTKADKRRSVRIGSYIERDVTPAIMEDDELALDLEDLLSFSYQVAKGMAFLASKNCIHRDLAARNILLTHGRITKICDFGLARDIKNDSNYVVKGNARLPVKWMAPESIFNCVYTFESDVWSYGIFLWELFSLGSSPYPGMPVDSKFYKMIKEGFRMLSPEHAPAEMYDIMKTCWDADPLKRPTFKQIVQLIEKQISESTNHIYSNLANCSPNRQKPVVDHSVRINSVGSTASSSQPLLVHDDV
UniProt P10721, 26-976 D816V: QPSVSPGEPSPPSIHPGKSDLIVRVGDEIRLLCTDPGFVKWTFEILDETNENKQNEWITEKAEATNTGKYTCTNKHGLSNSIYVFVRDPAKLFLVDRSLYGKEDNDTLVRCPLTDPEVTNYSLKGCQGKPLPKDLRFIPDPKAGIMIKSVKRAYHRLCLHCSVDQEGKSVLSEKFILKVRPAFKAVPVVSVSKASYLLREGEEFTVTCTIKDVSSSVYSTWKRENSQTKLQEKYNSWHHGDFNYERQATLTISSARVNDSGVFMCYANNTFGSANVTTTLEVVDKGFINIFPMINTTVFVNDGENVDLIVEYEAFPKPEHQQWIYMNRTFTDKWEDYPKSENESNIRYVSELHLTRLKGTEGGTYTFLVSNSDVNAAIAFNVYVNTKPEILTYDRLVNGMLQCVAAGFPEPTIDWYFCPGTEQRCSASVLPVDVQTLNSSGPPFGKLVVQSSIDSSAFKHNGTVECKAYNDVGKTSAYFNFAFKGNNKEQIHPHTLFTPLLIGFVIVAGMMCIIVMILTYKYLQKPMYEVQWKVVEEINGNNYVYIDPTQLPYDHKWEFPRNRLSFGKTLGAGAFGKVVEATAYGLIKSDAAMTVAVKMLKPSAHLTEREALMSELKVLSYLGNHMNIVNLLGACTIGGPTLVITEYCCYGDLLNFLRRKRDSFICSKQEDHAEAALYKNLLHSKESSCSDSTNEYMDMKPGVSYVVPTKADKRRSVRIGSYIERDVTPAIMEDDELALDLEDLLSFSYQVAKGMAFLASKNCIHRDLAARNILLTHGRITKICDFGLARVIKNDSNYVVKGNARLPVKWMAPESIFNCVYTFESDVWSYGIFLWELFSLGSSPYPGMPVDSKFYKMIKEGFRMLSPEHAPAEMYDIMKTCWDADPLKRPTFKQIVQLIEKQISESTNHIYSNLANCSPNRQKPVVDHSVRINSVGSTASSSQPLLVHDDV

Columns and labels:
c-kit WT = target: T1, c-kit WT (Homo sapiens, UniProt P10721); test: Colorimetric cell proliferation and viability assay (CellTiter-Blue) on BaF3 Kit WT cell line; type: cell-based; details: Ba/F3 cells expressing human Kit WT, stimulated with 250 ng/ml murine SCF, 48 hours incubation
T1 construct: expressed in transfected cells; host or cells: murine Ba/F3 proB lymphoid cells, stimulated with recombinant murine SCF

c-kit D816V = target: T2, c-kit D816V (Homo sapiens, UniProt P10721, D816V); test: Colorimetric cell proliferation and viability assay (CellTiter-Blue) on BaF3 Kit D816V cell line; type: cell-based; details: Ba/F3 cells expressing human Kit D816V, cytokine independent, 48 hours incubation
T2 construct: expressed in transfected cells; host or cells: murine Ba/F3 proB lymphoid cells, cytokine-independent

Row | Structure (SMILES) | pIC50 (c-kit WT) | pIC50 (c-kit D816V)
1 | COc1ccc(C)c(Nc2ncc(-c3cc(CN4CCOCC4)cc(-n4c(Cl)cccc4=O)c3)o2)c1 [Example 126, 6-Chloro-1-{3-[2-(5-methoxy-2-methyl-phenylamino)-oxazol-5-yl]-5-morpholin-4-ylmethyl-phenyl}-1H-pyridin-2-one] | ≥ 6.00 | ≥ 6.00
2 | COc1ccc(C)c(Nc2ncc(-c3cc(CN4CCOCC4)cc(-c4ccc[nH]c4=O)c3)o2)c1 [Example 128, 3-{3-[2-(5-Methoxy-2-methyl-phenylamino)-oxazol-5-yl]-5-morpholin-4-ylmethyl-phenyl}-1H-pyridin-2-one] | ≥ 6.00 | ≥ 6.00
3 | Cc1ccc(OCCN2CCOCC2)cc1Nc1ncc(-c2cc(OC(F)(F)F)cc(-c3ccc[nH]c3=O)c2)o1 [Example 135, 3-(3-{2-[2-Methyl-5-(2-morpholin-4-yl-ethoxy)-phenylamino]-oxazol-5-yl}-5-trifluoromethoxy-phenyl)-1H-pyridin-2-one] | ≥ 6.00 | ≥ 6.00
4 | COc1cc(-c2cnc(Nc3cc(C)cc(C)c3)o2)cc(-c2ccc[nH]c2=O)c1 [Example 137, 3-{3-[2-(3,5-Dimethyl-phenylamino)-oxazol-5-yl]-5-methoxy-phenyl}-1H-pyridin-2-one] | ≥ 6.00 | ≥ 6.00
5 | COc1cc(-c2cnc(Nc3cc(OCCO)ccc3C)o2)cc(-c2ccc[nH]c2=O)c1 [Example 138, 3-(3-{2-[5-(2-Hydroxy-ethoxy)-2-methyl-phenylamino]-oxazol-5-yl}-5-methoxy-phenyl)-1H-pyridin-2-one] | ≥ 6.00 | ≥ 6.00
6 | Cc1cc(C)cc(Nc2ncc(-c3cc(OC(C)C)cc(-c4c(C)cc[nH]c4=O)c3)o2)c1 [Example 139, 3-{3-[2-(3,5-Dimethyl-phenylamino)-oxazol-5-yl]-5-isopropoxy-phenyl}-4-methyl-1H-pyridin-2-one] | ≥ 6.00 | ≥ 6.00
7 | CCOCc1ccc(C)c(Nc2ncc(-c3ccnc(-c4c(C)cc[nH]c4=O)c3)o2)c1 [Example 140, 4-[2-(5-(Ethoxymethyl)-2-methyl-phenylamino)-oxazol-5-yl]-4′-methyl-1′H-[2,3′]bipyridinyl-2′-one] | ≥ 6.00 | ≥ 6.00
8 | COc1cc(-c2cnc(Nc3cccc(C)c3)o2)cc(-c2c(C)cc[nH]c2=O)c1 [Example 142, 3-[3-Methoxy-5-(2-m-tolylamino-oxazol-5-yl)-phenyl]-4-methyl-1H-pyridin-2-one] | ≥ 6.00 | ≥ 6.00
9 | COCc1ccc(C)c(Nc2ncc(-c3cc(Cl)cc(-c4c(C)cc[nH]c4=O)c3)o2)c1 [Example 145, 3-{3-Chloro-5-[2-(5-(methoxymethyl)-2-methyl-phenylamino)-oxazol-5-yl]-phenyl}-4-methyl-1H-pyridin-2-one] | ≥ 6.00 | ≥ 6.00
10 | CCOCc1ccc(C)c(Nc2ncc(-c3cc(C)cc(-c4c(C)cc[nH]c4=O)c3)o2)c1 [Example 147, 3-{3-[2-(5-(Ethoxymethyl)-2-methyl-phenylamino)-oxazol-5-yl]-5-methyl-phenyl}-4-methyl-1H-pyridin-2-one] | ≥ 6.00 | ≥ 6.00
11 | CCOCc1ccc(C)c(Nc2ncc(-c3ccnc(-c4ccc[nH]c4=O)c3)o2)c1 [Example 168, 4-[2-(5-(Ethoxymethyl)-2-methyl-phenylamino)-oxazol-5-yl]-1′H-[2,3′]bipyridinyl-2′-one] | ≥ 6.00 | ≥ 6.00
12 | Cc1ccc(NC(=O)CN2CCCC2)cc1Nc1ncc(-c2ccnc(-c3ccc[nH]c3=O)c2)o1 [Example 169, N-{4-Methyl-3-[5-(2′-oxo-1′,2′-dihydro-[2,3']bipyridinyl-4-yl)-oxazol-2-ylamino]-phenyl}-2-pyrrolidin-1-yl-acetamide] | ≥ 6.00 | ≥ 6.00
13 | Cc1ccc(-c2ccc(CN(C)C)o2)cc1Nc1ncc(-c2ccnc(-c3ccc[nH]c3=O)c2)o1 [Example 171, 4-{2-[5-(5-Dimethylaminomethyl-furan-2-yl)-2-methyl-phenylamino]-oxazol-5-yl}-1′H-[2,3′]bipyridinyl-2′-one] | ≥ 6.00 | ≥ 6.00
14 | COc1cc(Nc2ncc(-c3ccnc(-c4ccc[nH]c4=O)c3)o2)cc(OCCCN(C)C)c1 [Example 173, 4-{2-[3-(3-Dimethylamino-propoxy)-5-methoxy-phenylamino]-oxazol-5-yl}-1′H-[2,3′]bipyridinyl-2′-one] | ≥ 6.00 | ≥ 6.00
15 | COCCN(C)c1ccc(C)c(Nc2ncc(-c3ccnc(-c4ccc[nH]c4=O)c3)o2)c1 [Example 177, 4-(2-{5-[(2-Methoxy-ethyl)-methyl-amino]-2-methyl-phenylamino}-oxazol-5-yl)-1′H-[2,3′]bipyridinyl-2′-one] | ≥ 6.00 | ≥ 6.00
16 | COCc1ccc(Cl)c(Nc2ncc(-c3ccnc(-c4ccc[nH]c4=O)c3)o2)c1 [Example 178, 4-[2-(2-Chloro-5-(methoxymethyl)-phenylamino)-oxazol-5-yl]-1′H-[2,3′]bipyridinyl-2′-one] | ≥ 6.00 | ≥ 6.00
17 | CCOCc1ccc(Cl)c(Nc2ncc(-c3ccnc(-c4c(C)cc[nH]c4=O)c3)o2)c1 [Example 183, 4-[2-(2-Chloro-5-ethoxymethyl-phenylamino)-oxazol-5-yl]-4′-methyl-1′H-[2,3′]bipyridinyl-2′-one] | ≥ 6.00 | ≥ 6.00
18 | CCOCc1ccc(C)c(Nc2ncc(-c3ccnc(-c4ccc(C)[nH]c4=O)c3)o2)c1 [Example 186, 4-[2-((5-Ethoxymethyl)-2-methyl-phenylamino)-oxazol-5-yl]-6′-methyl-1′H-[2,3′]bipyridinyl-2′-one] | ≥ 6.00 | ≥ 6.00
19 | Cc1ccc(COC2CCN(C)CC2)cc1Nc1ncc(-c2ccnc(-c3ccc[nH]c3=O)c2)o1 [Example 195, 4-{2-[2-Methyl-5-(1-methyl-piperidin-4-yloxymethyl)-phenylamino]-oxazol-5-yl}-1′H-[2,3′]bipyridinyl-2′-one] | ≥ 6.00 | ≥ 6.00
20 | COCCOc1cc(-c2cnc(Nc3cc(C)cc(C)c3)o2)cc(-c2c(C)cc[nH]c2=O)c1 [Example 199, 3-[3-[2-(3,5-Dimethyl-phenylamino)-oxazol-5-yl]-5-(2-methoxy-ethoxy)-phenyl]-4-methyl-1H-pyridin-2-one hydrochloride] | ≥ 6.00 | ≥ 6.00
21 | Cc1cc(C)cc(Nc2ncc(-c3cc(OCCCO)cc(-c4c(C)cc[nH]c4=O)c3)o2)c1 [Example 202, 3-[3-[2-(3,5-Dimethyl-phenylamino)-oxazol-5-yl]-5-(3-hydroxy-propoxy)-phenyl]-4-methyl-1H-pyridin-2-one] | ≥ 6.00 | ≥ 6.00
22 | COc1cc(-c2cnc(Nc3cc(CN4CCOCC4)cc(C)c3C)o2)cc(-c2c(C)cc[nH]c2=O)c1 [Example 212, 3-{3-[2-(2,3-Dimethyl-(5-morpholin-4-ylmethyl)-phenylamino)-oxazol-5-yl]-5-methoxy-phenyl}-4-methyl-1H-pyridin-2-one] | ≥ 6.00 | ≥ 6.00
23 | Cc1cc(C)c(-c2cc(-c3cnc(Nc4cc(CN5CCOCC5)cc(C)c4C)o3)ccn2)c(=O)[nH]1 [Example 213, 4-[2-(2,3-Dimethyl-5-(morpholin-4-ylmethyl)-phenylamino)-oxazol-5-yl]-4′,6′-dimethyl-1′H-[2,3′]bipyridinyl-2′-one] | ≥ 6.00 | ≥ 6.00
24 | CCOCc1ccc(C)c(Nc2ncc(-c3cc(OC(C)C)cc(N4CCNC4=O)c3)o2)c1 [Example 214, 1-{3-[2-((5-Ethoxymethyl)-2-methyl-phenylamino)-oxazol-5-yl]-5-isopropoxy-phenyl}-imidazolidin-2-one] | ≥ 6.00 | ≥ 6.00
25 | Cc1ccc(Nc2nccs2)cc1Nc1ncc(-c2cc(OC(C)C)cc(N3CCNC3=O)c2)o1 [Example 217, 1-(3-Isopropoxy-5-{2-[2-methyl-5-(thiazol-2-ylamino)-phenylamino]-oxazol-5-yl}-phenyl)-imidazolidin-2-one] | ≥ 6.00 | ≥ 6.00
26 | Cc1ccc(OCCCN2CCOCC2)cc1Nc1ncc(-c2ccnc(-c3c(C)cc[nH]c3=O)c2)o1 [Example 218, 4′-Methyl-4-{2-[2-methyl-5-(3-morpholin-4-yl-propoxy)-phenylamino]-oxazol-5-yl}-1′H-[2,3′]bipyridinyl-2′-one] | ≥ 6.00 | ≥ 6.00
27 | COc1cc(Nc2ncc(-c3cccc(-c4ccc[nH]c4=O)c3)o2)cc(OC)c1 [Example 219, 3-{3-[2-(3,5-Dimethoxy-phenylamino)-oxazol-5-yl]-phenyl}-1H-pyridin-2-one] | ≥ 6.00 | ≥ 6.00
28 | COc1cc(Nc2ncc(-c3cccc(-c4cccn(CCN(C)C)c4=O)c3)o2)cc(OC)c1 [Example 222, 3-{3-[2-(3,5-Dimethoxy-phenylamino)-oxazol-5-yl]-phenyl}-1-(2-dimethylamino-ethyl)-1H-pyridin-2-one] | ≥ 6.00 | ≥ 6.00
